According to patent publication EP4741420A1, “PHARMACEUTICAL COMPOSITION FOR PREVENTING OR TREATING OBESITY COMPRISING GLP ANALOGUE AS ACTIVE INGREDIENT” (priority 2023, dated 2025):
Part of at least one peptide drawing is inferred or uncertain, most often the ends. Peptide text beside a SMILES is read from it.

Columns and labels:
[1] = test system: diet-induced obesity (DIO) mouse model; test: DIO mouse model QD: weight loss and cumulative food intake (Example 7-1); assay type: in vivo; settings: DIO mice, QD (once daily), 4-week administration, 10 nmol/kg/dose
Description: The obesity treatment effect of the long-acting GLP analog prepared in Example 1 was evaluated. Specifically, an obesity animal model was prepared to confirm the obesity treatment effect, and after administering a certain amount of material, the model was subjected to measurement of a body weight and the change in food intake, and biochemical tests. First, to establish a diet-induced obesity mouse model, C57BL/6 DIO mice were fed a high-fat diet for 12 weeks, resulting in a body weight that was 130% that of the control (DIO model). Afterward, the mice were grouped at a specific time point to determine the average weight of the DIO model (46.2±2.2), followed by drug administration to the mice for 4 weeks. Here, the body weight and food intake were measured daily.
(§1) The anti-obesity effects of SEQ ID NO: 1 prepared in Example 1, and SEQ ID NOs: 6 and 7 prepared in Example 4 were analyzed. […] In addition, as an experimental model, a diet-induced obesity (DIO) mouse model fed a high-fat diet for 3 months was used.
To analyze the anti-obesity effect, first, the comparative analysis of weight loss effect and cumulative food intake was conducted. The experimental method was the same as described in Example 3.

[2] = test system: diet-induced obesity (DIO) mouse model; test: DIO mouse model QD: body composition by DEXA (Example 7-2); assay type: in vivo, mice; settings: QD (once daily), 10 nmol/kg/dose
Description: as §1
To analyze the anti-obesity effect, body composition analysis was conducted using Dual Energy X-ray Absorptiometry (DEXA). The DEXA imaging system (VET DXA iNSiGHT) is for measuring the bone density and body fat of an experimental animal through dual X-ray transmission, and after the completion of experimental material administration, DEXA fat mass and muscle mass were measured for each individual. Accordingly, body weight was categorized into BMC, lean, and fat, and the fat reduction was analyzed to provide a more objective assessment of the anti-obesity effect according to Example 7-1.

[3] = test system: diet-induced obesity (DIO) mouse model; test: DIO mouse model QD: fat weight by tissue (Example 7-3); assay type: in vivo; settings: fat weight of tissue, DIO mice, QD (once daily), 10 nmol/kg/dose
Description: as §1
To analyze the anti-obesity effect, the amount of fat by tissue was measured postmortem to further confirm the efficacy of the peptide in obesity. Specifically, the epididymal, mesenteric, inguinal, and perirenal tissues of animals euthanized by decapitation were excised to measure the fat weights for each tissue and then photographed.

[4] = test system: diet-induced obesity (DIO) mouse model; test: DIO mouse model QD: obesity-related factors in plasma (Example 7-4); assay type: in vivo; settings: DIO mice, QD (once daily), 10 nmol/kg/dose
Description: In addition, after the experiment was completed, blood and serum samples were obtained from each mouse model, and biochemical tests were performed for blood glucose, total cholesterol, high-density lipoprotein (HDL), low-density lipoprotein (LDL), and triglycerides.
as §1
To analyze the anti-obesity effect, mouse plasma was obtained postmortem to measure obesity-related factors in plasma. Here, the analysis method was the same as described in Example 3.

[5] = test system: diet-induced obesity (DIO) mouse model; test: DIO mouse model QD: liver damage markers AST/ALT (Example 8-1); assay type: in vivo; settings: serum, DIO mice, QD (once daily), 10 nmol/kg/dose
Description: The anti-obesity effect in the liver was analyzed for the same materials used in Example 7. Specifically, liver damage marker (AST/ALT) analysis, liver weight/fatty liver examination, hepatic triglyceride measurement, and liver ORO staining analysis were performed.
To analyze the liver damage markers, AST/ALT, blood biochemical analysis was performed on the blood of a material-treated obese mouse model. Specifically, the collected blood was divided into two tubes, approximately 200 µL of the blood was put into each EDTA tube, and the remaining volume was injected into a vacutainer tube containing a coagulant. Blood collected in an EDTA tube was used to measure glycated hemoglobin on the same day, while the blood collected in the vacutainer tube was left at room temperature for 15 to 20 minutes to coagulate, and then centrifuged for 10 minutes to obtain serum. The serum was used for blood biochemical analysis.

[6] = test system: diet-induced obesity (DIO) mouse model; test: DIO mouse model QD: liver weight and steatosis score, H&E (Example 8-2); assay type: in vivo, mice; settings: QD (once daily), 10 nmol/kg/dose
Excerpt: To examine liver weight and steatosis, the liver weight elevated by obesity induction and the degree of steatosis after liver H&E staining were scored from grades 0 to 3 to compare the drug's hepatic efficacy. First, after the test was completed, the animal's liver was excised on the day of necropsy to confirm the liver efficacy of the drug. After measuring the weight of the excised liver, the intermediate lobes were frozen in liquid nitrogen for the subsequent measurement of triglycerides. The remaining portion of the liver was fixed in 10% neutral buffered formalin and subjected to histopathological examination.
For H&E analysis, the liver tissue fixed in the buffered formalin was put into an automatic tissue processor, embedded in paraffin, and then prepared into a paraffin block. Subsequently, the paraffin block was prepared into a tissue section, which was stained with hematoxylin & eosin (H&E). The stained tissue slide was observed using an optical microscope (BX61, Olympus, Japan) and photographed (DP80, Olympus, Japan).
Histopathological quantification of liver tissue was performed by scoring the degree of steatosis on H&E-stained slides from grades 0 to 3. The contents corresponding to each scoring grade are as follows.

[7] = test system: diet-induced obesity (DIO) mouse model; test: DIO mouse model QD: hepatic triglyceride measurement (Example 8-3); assay type: in vivo; settings: liver tissue, DIO mice, QD (once daily), 10 nmol/kg/dose
Description: To measure hepatic triglyceride levels, triglycerides in liver tissue excised on the necropsy day were analyzed using a measurement kit (Biomax, Cat no. BM-TGR-100).

[8] = test system: diet-induced obesity (DIO) mouse model; test: DIO mouse model QD: liver Oil Red O staining (Example 8-4); assay type: in vivo; settings: DIO mice, QD (once daily), 10 nmol/kg/dose
Description: Finally, to confirm the anti-obesity effect in the liver, liver Oil Red O staining analysis was performed. ORO staining is a staining method used to detect triglycerides (fat) in adipose-related diseases, and used to differentiate fat embolism, liposarcoma, hepatic steatosis, and lipid accumulation disorders. In addition, it can also detect lipid complexes, such as phospholipids. For ORO analysis, liver tissue was processed in 30% sucrose in a refrigerator for 3 days to prepare frozen tissue sections, which were used to prepare OCT-embedded frozen blocks. Cryosections were prepared and stained with ORO.

DIO obese mice [9] = test: DIO obese mice Q2D: body weight and cumulative food intake (Example 9-1); assay type: in vivo; settings: Q2D (once every two days); for Food intake: cumulative
DIO obese mice [10] = test: DIO obese mice Q2D: obesity-related factors in plasma (Example 9-2); assay type: in vivo; settings: Q2D (once every two days)
DIO obese mice [11] = test: DIO obese mice Q2D: liver damage markers AST/ALT (Example 9-3); assay type: in vivo; settings: Q2D (once every two days)

## CC[C@H](C)[C@H](NC(=O)[C@H](Cc1ccccc1)NC(=O)[C@H](CC(=O)O)NC(=O)[C@H](CCCNC(=N)N)NC(=O)[C@H](C)NC(=O)[C@H](C)NC(=O)[C@H](CC(C)C)NC(=O)[C@H](C)NC(=O)[C@H](CC(=O)O)NC(=O)[C@H](CC(C)C)NC(=O)[C@H](Cc1ccc(O)cc1)NC(=O)[C@@H](NC(=O)[C@H](CO)NC(=O)[C@H](CC(C)C)NC(=O)[C@H](CC(=O)O)NC(=O)[C@H](CO)NC(=O)[C@@H](NC(=O)[C@H](Cc1ccccc1)NC(=O)[C@@H](NC(=O)CNC(=O)[C@H](CCC(=O)O)NC(=O)C(C)(C)NC(=O)[C@@H](N)Cc1c[nH]cn1)[C@@H](C)O)[C@@H](C)O)[C@@H](C)O)C(=O)N[C@@H](CC(N)=O)C(=O)N[C@@H](Cc1c[nH]c2ccccc12)C(=O)N[C@@H](CC(C)C)C(=O)N[C@H](C(=O)N[C@@H](CCC(N)=O)C(=O)N[C@H](C(=O)N[C@@H](CCCCN)C(=O)N[C@H](C(=O)N[C@H](C(=O)N[C@@H](CC(=O)O)C(=O)N[C@@H](CCCCN)C(=O)N[C@@H](CCCCNC(=O)CC[C@H](NC(=O)CCCCCCCCCCCCCCCCC(=O)O)C(=O)O)C(=O)O)[C@@H](C)O)[C@@H](C)CC)[C@@H](C)O)[C@@H](C)CC [HU020M4] (HELM PEPTIDE1{H.[Aib].E.G.T.F.T.S.D.L.S.T.Y.L.D.A.L.A.A.R.D.F.I.N.W.L.I.Q.T.K.I.T.D.K.K}|PEPTIDE2{[O=C(O)CCCCCCCCCCCCCCCCC(=O)[*:2]].[gGlu]}$PEPTIDE1,PEPTIDE2,35:R3-2:R2$$$V2.0)
[1]
  Comparison of weight change (%): -15.8±4.0%
  Weight: 37.4 ± 2.1 g
  Weight (%) (Normalized to DIO vehicle): 80.5±8.7%
[1]; cumulative
  Food intake: 16.4 ± 1.8 g
[2]; DEXA, DIO mice
  Fat: 9.7 ± 0.7 g
  Lean: 26.6 ± 1.9 g
[2]; Table 9, DIO mice
  Weight: 37.4 ± 2.1 g
  Weight (%) (Normalized to DIO vehicle): 80.5±8.7%
[3]
  Epididymal: 1.75±0.32
  Inguinal: 2.23±0.16
  Mesentric: 0.74±0.16
  Perirenal: 0.31±0.07
[4]; blood
  HbA1c (%): 4.35±0.22%
[4]; plasma
  GLU: 227.8 ± 12.9 mg/dL
  HDL: 88.8 ± 6.8 mg/dL
  LDL: 6.4 ± 6.8 mg/dL
  TCHO: 175.8 ± 28.5 mg/dL
  TG: 49.3 ± 8.8 mg/dL
[5]
  ALT (U/L): 33.0±8.2 U/L
  AST (U/L): 63.3±7.7 U/L
[6]; DIO mice
  Liver weight: 1.39±0.2
[6]; H&E, mean of grades 0 to 3, DIO mice
  Hepatic steatosis test (Score 0~3): 0.80±0.18
[7]
  Liver TG levels (nmol/µ): 0.57±0.18 nmol/µ
[8]
  ORO positive area (%): 0.90±0.21%
DIO obese mice [9]; 10 nmol/kg/dose
  Comparison of weight change (%): -23.2±7.2%
  Weight: 36.9 ± 4.8 g
  Weight (%) (Normalized to DIO vehicle): 72.2±8.5%
  Food intake: 21.2 ± 1.3 g
DIO obese mice [9]; 25 nmol/kg/dose
  Comparison of weight change (%): -27.7±3.0%
  Weight: 34.7 ± 3.8 g
  Weight (%) (Normalized to DIO vehicle): 77.3±3.1%
  Food intake: 18.4 ± 1.5 g
DIO obese mice [10]; 10 nmol/kg/dose
  GLU: 219.3 ± 29.3 mg/dL
  HDL: 68.6 ± 11.8 mg/dL
  LDL: 53.9 ± 9.8 mg/dL
  TCHO: 132.1 ± 19.8 mg/dL
  TG: 56.2 ± 7.0 mg/dL
DIO obese mice [10]; 25 nmol/kg/dose
  GLU: 214.8 ± 24.3 mg/dL
  HDL: 67.5 ± 17.9 mg/dL
  LDL: 45.8 ± 11.4 mg/dL
  TCHO: 122.4 ± 18.4 mg/dL
  TG: 45.5 ± 13.4 mg/dL
DIO obese mice [11]; 10 nmol/kg/dose
  ALT (U/L): 38.3±16.6 U/L
  AST (U/L): 58.7±11.4 U/L
DIO obese mice [11]; 25 nmol/kg/dose
  ALT (U/L): 33.8±8.6 U/L
  AST (U/L): 52.9±6.9 U/L
